Library screen at single concentrations

From ChEMBL document CHEMBL3988442, “University of Dundee, Small-Polar-MMV Screening Library” (2021).

Mtb glucose medium: 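Phenotypic screen: M. tuberculosis growth, glucose 7H9 medium, 3 days; the read-out is not stated. Tested at 50 µM. Direction is inferred from retests: higher values go with more growth inhibition. About 69,000 compounds were tested under these conditions; 1.1% (about 760) showed 50% or more at least once.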
Mtb cholesterol medium: 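Whole-cell growth test on Mycobacterium tuberculosis, read after 4 days in a medium based on cholesterol and the lipid DPPC; the read-out is not stated. Concentration: 50 µM. The record gives no direction; compounds that gave an IC50 in retests scored well above the rest, so higher reads as more growth inhibition. About 69,000 compounds were tested under these conditions; 0.54% (about 370) showed 50% or more at least once.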

Values are the deposited “Percent Effect”, in %.
How 0% and 100% were set is not recorded. Most values in the screen are low, and negative values occur.
Compounds were drawn at random from those tested, without regard to their results.
Two or more numbers in one place are separate tests of the same structure; such repeats can differ widely.

For CC(C)c1nc(CN(C)C(=O)CNS(=O)(=O)c2cccs2)no1 the result was Mtb glucose medium: -28.17% & -15.87%; Mtb cholesterol medium: -25.09%. Result for [H][C@@]12CN(C(=O)NCC)C[C@]1([H])OCC(=O)N2C was Mtb glucose medium: -11.67% & 2.736%; Mtb cholesterol medium: 6.705%. Result for CC(NCc1cnc(N2CCOCC2)s1)c1ccc(Cl)s1 (stereo unspecified) was Mtb glucose medium: 1.068%; Mtb cholesterol medium: 4.48%. Result for CCn1nc(C)cc1NC(=O)CCn1nc(C)c(Br)c1C was Mtb glucose medium: -3.443%; Mtb cholesterol medium: 0.6085%. Result for CCNC(c1ccc(CC)cc1)c1cccnc1 (stereo unspecified) was Mtb glucose medium: 26.41%; Mtb cholesterol medium: 19.52%.

For CCc1noc(CNCC2CCCN2c2cccnn2)n1 (stereo unspecified) the result was Mtb glucose medium: -25.73%; Mtb cholesterol medium: -4.822%. O=C(N[C@@H]1CCNC[C@H]1O)c1ccc(-c2ccc(F)cc2)cc1 read Mtb glucose medium: -12.52%; Mtb cholesterol medium: -11.84%. CC1c2ncc(COCC3CC3)n2CCN1S(=O)(=O)N(C)C (stereo unspecified) gave Mtb glucose medium: -0.0358% & -19.87%; Mtb cholesterol medium: 4.419%. CN(C(=O)C1CCCC1)C(c1cccc(F)c1)c1ccccn1 (stereo unspecified) gave Mtb glucose medium: -40.35%; Mtb cholesterol medium: -30.8%. Result for CN(C)Cc1cnc(C2CN(C(=O)c3ccccc3Cl)CCO2)[nH]1 (stereo unspecified) was Mtb glucose medium: 3.779%; Mtb cholesterol medium: 10.08%.

With O=C(Cn1nc2c(cc1=O)CSCC2)NC(Cc1ccccc1)C(=O)O (stereo unspecified) the screen gave Mtb glucose medium: -2.612%; Mtb cholesterol medium: -15.29%. With O=C(NC1CC1)c1cc(C(F)(F)F)cc(C(=O)NC2CC2)n1 the screen gave Mtb glucose medium: -3% & -8.308%; Mtb cholesterol medium: -11.97%. With Cc1ccc(CNCC2CCN(CCO)CC2)cc1 the screen gave Mtb glucose medium: -19.46%; Mtb cholesterol medium: -9.275% & -0.4079%. COc1cccc(C(=O)N2CCN(CC(O)c3ccccc3)CC2)c1 (stereo unspecified) read Mtb glucose medium: -12.97%; Mtb cholesterol medium: -2.973%. For Cc1nc(CNC(=O)Nc2ccc3c(ccn3CCN(C)C)c2)no1 the result was Mtb glucose medium: 36.67%; Mtb cholesterol medium: 16.72%.

With O=C(O)C(F)(F)F.[H][C@@]12C[C@H](C(=O)NC)[C@@]([H])(CN(Cc3ccccc3)C1)O2 the screen gave Mtb glucose medium: 4.625%; Mtb cholesterol medium: -3.357%. CCCNC(=O)NCc1cccnc1OC read Mtb glucose medium: -6.056%; Mtb cholesterol medium: -26.33%. Cc1csc(N2CCN(Cc3cnc(C)s3)CC2C)n1 (stereo unspecified) gave Mtb glucose medium: 10.75% & 9.928%; Mtb cholesterol medium: 11.6%. Result for CC(NC(=O)CCCC(=O)c1cccs1)c1nnc2n1CCC2 (stereo unspecified) was Mtb glucose medium: -4.532% & -19.09%; Mtb cholesterol medium: -8.542%. Result for Cc1cc(S(=O)(=O)N2CCCc3cc(F)cc(F)c32)sc1C(=O)O was Mtb glucose medium: -8.645%; Mtb cholesterol medium: -13.17%.

O=C(O)C(F)(F)F.[H][C@@]12CCN(c3ncccn3)[C@@]1([H])CCN2C(=O)NC(C)C gave Mtb glucose medium: 11.41%; Mtb cholesterol medium: 5.147%. With O=C(O)C(F)(F)F.O=C(O)C(F)(F)F.[H][C@]12CCN(Cc3cccs3)[C@@]1([H])CC[C@H](COCc1cccnc1)O2 the screen gave Mtb glucose medium: -12.01%; Mtb cholesterol medium: -24.06%. With CC(C)n1cnc2c1C(C(=O)NCCO)N(Cc1ccccc1)CC2.O=C(O)C(F)(F)F (stereo unspecified) the screen gave Mtb glucose medium: 3.953% & 4.735%; Mtb cholesterol medium: -6.565%. Result for COc1ccc2c(c1)C(C(=O)NCCN1CCNC1=O)CC(=O)N2 (stereo unspecified) was Mtb glucose medium: -35.63%; Mtb cholesterol medium: -25.15%. [H][C@@]12CCN(S(=O)(=O)C3CC3)[C@]1([H])CC[C@@H](c1nc(C)no1)O2 read Mtb glucose medium: -19.57%; Mtb cholesterol medium: -16.31% & 4.588%.

Result for CCCN1CCCn2nc(CNS(=O)(=O)c3cnn(CC)c3)cc2C1 was Mtb glucose medium: 9.55%; Mtb cholesterol medium: -7.418%. Cc1ncc2c(c1CNC(=O)C1(c3ccc(F)cc3)CC1)CCNC2 read Mtb glucose medium: -10.38%; Mtb cholesterol medium: -3.367%. Result for O=C(O)C(F)(F)F.[H][C@@]12CCN(Cc3c(C)noc3C)C[C@]1(C(=O)N1CCCO1)CCO2 was Mtb glucose medium: -11.89%; Mtb cholesterol medium: -12.64%. With O=C(O)C(F)(F)F.O=C(O)C(F)(F)F.[H][C@@]12COC[C@]1(CN(C)C)CN(Cc1ccc(OC)cc1)C2 the screen gave Mtb glucose medium: -9.624%; Mtb cholesterol medium: -25.95%. CS(=O)(=O)N1CCN(C(=O)c2cc(-c3ccco3)cs2)CC1 gave Mtb glucose medium: 0.3849%; Mtb cholesterol medium: 6.104%.

C1CCC(c2nn3c(C4CCCO4)nnc3s2)C1 (stereo unspecified) gave Mtb glucose medium: 1.643% & 19.37%; Mtb cholesterol medium: 16.53%. Result for O=C(O)C(F)(F)F.O=c1cc(Cn2cncn2)nc2n1CCCN(Cc1ccc(F)cc1)C2 was Mtb glucose medium: 29.3%; Mtb cholesterol medium: 25.3%. Result for Cc1ccc(S(=O)(=O)N2CCN(CCC#N)CC2)s1 was Mtb glucose medium: -7.846%; Mtb cholesterol medium: -11.21% & -18.76%. For COc1cccc(CNc2ccc(F)c(Cl)c2)c1O the result was Mtb glucose medium: -0.6939% & 8.138%; Mtb cholesterol medium: -5.814%. With O=C(NCCCO)C1(CC2CC(c3ccc(F)cc3)=NO2)CCOCC1 (stereo unspecified) the screen gave Mtb glucose medium: -18.07%; Mtb cholesterol medium: -3.41% & -6.244%.

CC(C)(C)c1nnc2n1C(C(=O)N1CCOCC1)CC2 (stereo unspecified) read Mtb glucose medium: -11.96%; Mtb cholesterol medium: -3.326%.

Some entries from above, unchanged:

structure	Mtb glucose medium	Mtb cholesterol medium
CCc1noc(CNCC2CCCN2c2cccnn2)n1 (stereo unspecified)	-25.73	-4.822
CC(C)(C)c1nnc2n1C(C(=O)N1CCOCC1)CC2 (stereo unspecified)	-11.96	-3.326
[H][C@@]12CCN(S(=O)(=O)C3CC3)[C@]1([H])CC[C@@H](c1nc(C)no1)O2	-19.57	-16.31 & 4.588